In patent publication US20160046678A1 (ZYNGENIA, published 2016):
Results are given in words; binding and its absence hold for the method and conditions named. Some entries that bind do so weakly or less than the wild type.

The chains behind the UniProt entries cited, without tags or fusion partners. Residues count along the entry.
UniProt P21860, residues 20-643: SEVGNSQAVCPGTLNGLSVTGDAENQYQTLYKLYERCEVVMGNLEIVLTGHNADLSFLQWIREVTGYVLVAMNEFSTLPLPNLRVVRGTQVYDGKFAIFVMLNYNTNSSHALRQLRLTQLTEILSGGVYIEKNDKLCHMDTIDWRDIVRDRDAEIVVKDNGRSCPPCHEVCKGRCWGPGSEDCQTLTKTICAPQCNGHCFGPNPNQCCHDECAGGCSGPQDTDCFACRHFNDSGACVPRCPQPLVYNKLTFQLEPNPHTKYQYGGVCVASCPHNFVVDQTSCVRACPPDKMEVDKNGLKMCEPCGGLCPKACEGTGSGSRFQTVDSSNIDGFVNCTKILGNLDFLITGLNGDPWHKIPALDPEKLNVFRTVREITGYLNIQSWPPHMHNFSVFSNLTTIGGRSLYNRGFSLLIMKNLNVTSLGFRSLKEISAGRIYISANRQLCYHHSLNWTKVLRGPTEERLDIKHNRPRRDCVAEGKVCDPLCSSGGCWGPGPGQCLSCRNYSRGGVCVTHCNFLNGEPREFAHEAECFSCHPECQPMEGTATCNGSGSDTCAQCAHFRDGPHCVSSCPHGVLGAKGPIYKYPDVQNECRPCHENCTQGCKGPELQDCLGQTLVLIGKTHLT

Molecular target: ErbB3 (UniProt P21860)
Experiment: MRD screen, Example 48

| Binder | binding |
| --- | --- |
| DSEPYCPFLNPIWKEQCLARM [EGC866] | binds |
| TSDPYCPFLNPTWKAECIART [EGC867] | binds |
| WSEPYCPFTNPTWKAACIARS [EGC868] | binds |
| ARDPYCPFQNPIWYNECIART [EGC869] | binds |
| PREPYCPFHNPAWKAACVARA [EGC870] | binds |
| TNESYCPFLNPTWKAECMARI [EGC871] | binds |
| DREPYCPFLNPYWKDQCLART [EGC872] | binds |
| ISDPYCPFVNPIWKEQCIARN [EGC873] | binds |
| RNEPYCPFVNPIWKEQCIIRT [EGC874] | binds |
| LTTPYCPFENPTWKAQCIART [EGC875] | binds |
| SIEPYCPFLNPTWLEQCIARS [EGC876] | binds |
| KSEPYCPFLNPTWHDQCIARN [EGC877] | binds |
| IIGPYCPFLNPEWKDQCMART [EGC878] | binds |
| YREPYCPFQNPYWKDQCIARY [EGC879] | binds |
| AIEPYCPFLNPIWKDQCLARI [EGC880] | binds |
| MSRPYCPFLNPIWKEQCIART [EGC881] | binds |
| YNKPYCPFQNPTWKEACLARS [EGC882] | binds |
| SSEPYCPFLNPTWKAECIARS [EGC883] | binds |
| LSEPYCPFQNPIWKDKCIAMS [EGC884] | binds |
| SYEPYCPFLNPTWKAECIARI [EGC885] | binds |
| GSEPYCPFLNPTWKEQCIIRT [EGC886] | binds |
| SSEPYCPFLNPTWKSQCIARS [EGC888] | binds |
| RSEPYCPFLNPIWKDHCIART [EGC889] | binds |

| Binder | binding |
| --- | --- |
| RSEPYCPFLNPTWKAECIARS [EGC890] | binds |
| SREPYCPFLNPIWKDKCISRT [EGC891] | binds |
| TSDPYCPFLNPIWKEQCIVRT [EGC892] | binds |
| EREPYCPFLNPTWKEQCLARH [EGC893] | binds |
| LREPYCPFLNPTWKAECIARS [EGC894] | binds |
| GSEPYCPFLNPTWKEQCLARL [EGC895] | binds |
| MSEPYCPFLNPIWKEQCIARS [EGC896] | binds |
| RGEPYCPFTNPIWKEQCINRS [EGC897] | binds |
| DADPYCPFLNPTWKAECLARS [EGC898] | binds |
| RGEPYCPFLNPAWKNECLART [EGC899] | binds |
| IIEPYCPFVNPNWKAQCIARS [EGC900] | binds |
| EDEPYCPFLNPIWKAQCLART [EGC901] | binds |
| FTEPYCPFINPTWKAECIARS [EGC902] | binds |
| TSEPYCPFLNPIWKEQCITRT [EGC903] | binds |
| VEPYCPFLNPTWKDACLART [EGC904] | binds |
| TSEPYCPFGNPIWKKECIART [EGC905] | binds |
| TSEPYCPFLNPTWKDECIARM [EGC906] | binds |
| SNEPYCPFLNPTWKAQCLARM [EGC907] | binds |
| YREPYCPFLNPTWKEQCIARS [EGC908] | binds |
| LNAPYCPFLNPNWYDQCIHRS [EGC909] | binds |
| SSDPYCPFLNPTWKQQCIERS [EGC910] | binds |
| ASEPYCPFLNPTWKEQCIART [EGC911] | binds |
| LSEPYCPFQNPTWYDECISRS [EGC912] | binds |

| Binder | binding |
| --- | --- |
| SSEPYCPFLNPKWKHECIARS [EGC913] | binds |
| GSEPYCPFLNPIWKAECIARS [EGC914] | binds |
| RIEPYCPFVNPTWKDQCLART [EGC915] | binds |
| SIEPYCPFLNPTWKEQCIARS [EGC916] | binds |
| RTEPYCPFLNPTWKEQCIARS [EGC917] | binds |
| PSEPYCPFLNPTWKDQCLQRS [EGC918] | binds |
| YSEPYCPFLNPTWKAECIART [EGC919] | binds |
| TSEPYCPFLNPTWKEHCMART [EGC920] | binds |
| GSNPYCPFLNPIWKEACLART [EGC921] | binds |
| INEPYCPFQNPFWYAECLART [EGC922] | binds |
| TREPYCPFLNPTWLDQCIART [EGC923] | binds |
| IREPYCPFLNPSWKAECIARS [EGC924] | binds |
| ASEPYCPFINPTWKDECIARS [EGC925] | binds |
| MKEPYCPFLNPTWKAQCIART [EGC927] | binds |
| TDETYCPFKNPIWYEECIARS [EGC928] | binds |
| RGEPYCPFKNPTWKYQCLART [EGC929] | binds |
| IREPYCPFLNPIWKAHCIALT [EGC930] | binds |
| VSEPYCPFMNPIWKAECLSRT [EGC931] | binds |
| EREPYCPFLNPIWLEQCLSRT [EGC932] | binds |
| YSEPYCPFLNPIWKEQCIART [EGC933] | binds |
| FGEPYCPFLNPTWKAECLVRS [EGC934] | binds |
| LREPYCPFLNPTWKEQCLVRT [EGC935] | binds |
